Results are given in words; binding and its absence hold for the method and conditions named. Some entries that bind do so weakly or less than the wild type.
Target: ActRII-ECD (extracellular domain of mouse ActRII, residues 1-102) (mouse) (UniProt P27038)
Assay: SPR (BIAcore), receptor ECD immobilized

Amino acid sequences for entries named in this document (tags omitted). Residues count along the entry.
UniProt P27038, residues 20-135: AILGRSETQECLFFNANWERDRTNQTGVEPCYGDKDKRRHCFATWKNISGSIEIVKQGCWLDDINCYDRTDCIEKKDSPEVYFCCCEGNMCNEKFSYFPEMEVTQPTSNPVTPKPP

binding | Binder
binds | AB2-011 (1b2b3b4b5a6a activin/BMP-2 chimera) (ligand) MQAKHQQRKRLKSSCKRHPLYVDFSDVGWNDWIVAPPGYHAFYCHGECPFPLADHLNSTNHAIVQTLVNSVNSKIPKACCVPTKLRPSMLYYDDGQNIIKKDIQNMIVEECGCS
binds | AB2-012 (1b2b3b4b5b6a activin/BMP-2 chimera) (ligand) MQAKHKQRKRLKSSCKRHPLYVDFSDVGWNDWIVAPPGYHAFYCHGECPFPLADHLNSTNHAIVQTLVNSVNSKIPKACCVPTELSAISMLYYDDGRNIIKKDIQNMIVEECGCS
